# Results taken from US8735446B2, “Vanillin acetals and sensory stimulant composition containing the same” (Takasago International Corporation, priority 2005, dated 2014).
# Tested on: ten expert panelists
# Assay: Sensory Evaluation 1: oral evaluation of 10 ppm aqueous solutions
# Design: species or system human
# Details: in vivo
# Description: Compound A and Compound C obtained in Example 1 and Example 3, respectively, were subjected to oral evaluation using 10 ppm aqueous solutions of them by ten expert panelists having 5 or more year experience, and an instantaneous sensation and an intensity of warming sensation and pungent taste were evaluated on the basis of the following evaluation criteria. On the sensory evaluation, 4-(l-methoxymethyl)-2-(3′-methoxy-4′-hydroxyphenyl)-1,3-dioxolan (Comparative compound A: the compound described in JP-A-8-225564) was used as a comparative compound. The evaluation results in the table show the average value of ten panelists.
row,Compound,odor
1,"COCC1COC(c2ccc(O)c(OC)c2)O1 (stereo not drawn) [Comparative compound A, 4-(l-methoxymethyl)-2-(3′-methoxy-4′-hydroxyphenyl)-1,3-dioxolan, reference compound]",almost odorless
2,"CCCCC1COC(c2ccc(O)c(OC)c2)O1 (stereo not drawn) [Compound A, vanillin-1,2-hexylene glycol acetal]",almost odorless
3,"CCCCOCC1COC(c2ccc(O)c(OC)c2)O1 (stereo not drawn) [Compound C, vanillin-1-butoxyglycerol acetal]",almost odorless
